For ten molecules, binding results are on record in paper PMC4783006.

By UniProt entry, the sequences of proteins in these tests, tags left out. Where a name states a change or a piece, a line headed by the entry shows the natural chain unless it says otherwise.
UniProt Q6K678: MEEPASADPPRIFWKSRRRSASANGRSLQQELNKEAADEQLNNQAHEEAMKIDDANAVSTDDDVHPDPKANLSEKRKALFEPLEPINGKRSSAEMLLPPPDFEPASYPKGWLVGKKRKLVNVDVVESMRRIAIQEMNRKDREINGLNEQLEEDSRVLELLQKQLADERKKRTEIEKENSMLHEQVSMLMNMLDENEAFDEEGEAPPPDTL
UniProt E5RQA1: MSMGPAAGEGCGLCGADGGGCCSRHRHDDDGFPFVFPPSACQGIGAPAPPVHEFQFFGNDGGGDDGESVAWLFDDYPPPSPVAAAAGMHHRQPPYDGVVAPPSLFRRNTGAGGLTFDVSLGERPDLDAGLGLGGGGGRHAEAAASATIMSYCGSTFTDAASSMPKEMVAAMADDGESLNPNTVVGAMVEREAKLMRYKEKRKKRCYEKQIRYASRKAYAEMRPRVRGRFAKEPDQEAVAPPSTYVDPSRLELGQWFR
UniProt Q9FDX8: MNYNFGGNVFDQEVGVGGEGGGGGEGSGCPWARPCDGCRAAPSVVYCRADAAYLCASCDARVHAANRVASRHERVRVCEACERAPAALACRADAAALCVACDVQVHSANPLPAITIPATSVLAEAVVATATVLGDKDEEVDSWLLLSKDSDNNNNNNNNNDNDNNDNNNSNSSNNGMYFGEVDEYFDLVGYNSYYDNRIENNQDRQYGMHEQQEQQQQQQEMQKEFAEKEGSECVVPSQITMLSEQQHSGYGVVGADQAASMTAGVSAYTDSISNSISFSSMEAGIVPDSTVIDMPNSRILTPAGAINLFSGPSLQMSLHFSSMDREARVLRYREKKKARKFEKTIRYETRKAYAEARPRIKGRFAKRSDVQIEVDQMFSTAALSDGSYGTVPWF
UniProt Q8VWH2: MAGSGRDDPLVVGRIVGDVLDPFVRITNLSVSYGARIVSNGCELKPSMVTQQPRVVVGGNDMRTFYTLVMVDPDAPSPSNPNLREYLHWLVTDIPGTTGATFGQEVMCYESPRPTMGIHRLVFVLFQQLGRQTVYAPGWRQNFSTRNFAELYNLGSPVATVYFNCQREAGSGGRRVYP
UniProt Q93WI9: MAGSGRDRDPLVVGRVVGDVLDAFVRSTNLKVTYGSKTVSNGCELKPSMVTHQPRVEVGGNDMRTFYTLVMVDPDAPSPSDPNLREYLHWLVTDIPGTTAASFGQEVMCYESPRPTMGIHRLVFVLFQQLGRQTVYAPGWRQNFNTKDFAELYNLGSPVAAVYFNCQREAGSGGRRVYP
UniProt Q9XJ60: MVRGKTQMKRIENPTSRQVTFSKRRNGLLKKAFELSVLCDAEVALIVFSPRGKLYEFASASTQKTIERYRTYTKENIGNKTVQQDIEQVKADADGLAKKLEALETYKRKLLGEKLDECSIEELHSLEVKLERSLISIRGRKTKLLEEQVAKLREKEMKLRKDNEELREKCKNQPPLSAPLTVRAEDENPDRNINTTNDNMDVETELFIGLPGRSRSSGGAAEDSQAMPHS

Assay [1] concerns the target Heading Date Repressor 1 (HDR1), yeast two-hybrid fusion (rice (Oryza sativa)) (UniProt Q6K678). Kind of assay: two-hybrid; direct test; pGADT7 (AD) and pGBKT7 (BD) fusions in S. cerevisiae AH109; spotted on SD lacking leucine, tryptophan, histidine and adenine.
Assay [2] has the same target. The description is as above. The source holds these as a separate data set.
In assay [3] the target is FLAG-HDR1 (rice (Oryza sativa)). Kind of assay: co-IP; total protein from leaves of FLAG-HDR1 transgenic and WT rice; anti-FLAG immunoprecipitation; blot with OsK4 antibody.
In assay [4] the target is HDR1, BiFC fusion (pSAT1-nVenus-C-HDR1) (rice (Oryza sativa)). Description: split reporter; BiFC in Arabidopsis protoplasts; nVenus and cCFP fusions; YFP signal in the nuclei.

Like-named read-outs stand apart in the source and are kept apart here. No constants are given. Whether binding was seen depends on the method and setting. For some of these results: Binding calls can cover weak binding; strength is not graded here. For some of these results: Tags and fused reporters may be left off the sequences shown. For some of these results: In cells and extracts the contact can be indirect.

For the molecule “Ghd7 (Grain number, plant height and heading date 7), yeast two-hybrid fusion (from UniProt E5RQA1 1-257)”, in assay [1], the binding entry is reported as “no binding”.
Still for that read-out and setting: in the case of “Heading date 1 (HD1), yeast hybrid fusion (from UniProt Q9FDX8 1-395)” it was “no binding”.
“RICE FLOWERING LOCUS T1 (RFT1), yeast two-hybrid fusion (from UniProt Q8VWH2 1-178)”: in assay [1], the binding entry was “no binding”.
As for “Heading date 3a (HD3A), yeast two-hybrid fusion (from UniProt Q93WI9 1-179)”, the binding result in assay [1] was “no binding”.
Turning to “OsMADS50, yeast two-hybrid fusion (from UniProt Q9XJ60 1-230)”, the binding result in assay [1] is given as “no binding”.

B1: OsK3, yeast two-hybrid fusion (enzyme, UniProt Q852Q0 1-508)
chain: MDGNAKGGGHSEALKNYNLGRTLGIGSFGKVKIAEHKLTGHRVAIKILNRRQMRNMEMEEKAKREIKILRLFIHPHIIRLYEVIYTPTDIYVVMEYCKFGELFDYIVEKGRLQEDEARRIFQQIISGVEYCHRNMVVHRDLKPENLLLDSKYNVKLADFGLSNVMHDGHFLKTSCGSPNYAAPEVISGKLYAGPEVDVWSCGVILYALLCGTLPFDDENIPNLFKKIKGGIYTLPSHLSALARDLIPRMLVVDPMKRITIREIREHQWFQIRLPRYLAVPPPDTAQQAKMIDEDTLQDVVNLGYGKDHVCESLRNRLQNEATVAYYLLLDNRFRATSGYLGADYQESLERNFNRFASSESASSNTRHYLPGSSDPHASGLRPHYPVERKWALGLQSRAQPREIMIEVLKALQDLNVSWKKNGQYNMKCRWSVGTQATDMLDVNNSFVDDSIIMDNGDVNGRLPAVIKFEIQLYKTRDEKYLLDMQRVTGPQLLFLDFCADFLTKLRVL
As for B1, in assay [2], the binding entry was “binds”.

B2: OsK4, yeast two-hybrid fusion (enzyme, UniProt Q852Q1 1-509)
chain: MEGNARGGGHSEALKNYNLGRTLGIGSFGKVKIAEHKLTGHRVAIKILNRRQMRNMEMEEKAKREIKILRLFIHPHIIRLYEVIYTPTDIYVVMEYCKFGELFDYIVEKGRLQEDEARRIFQQIISGVEYCHRNMVVHRDLKPENLLLDSKYNVKLADFGLSNVMHDGHFLKTSCGSPNYAAPEVISGKLYAGPEVDVWSCGVILYALLCGTLPFDDENIPNLFKKIKGGIYTLPSHLSALARDLIPRMLVVDPMKRITIREIREHQWFQIRLPRYLAVPPPDTAQQAKMIDEDTLQDVVNLGYEKDHVCESLRNRLQNEATVAYYLLLDNRFRATSGYLGADYQESLERNLNRFASSESASSNTRHYLPGSSDPHASGLRPHYPVERKWALGLQSRAQPREIMIEVLKALEDLNVCWKKNGQYNMKCRWSVGYPQATDMLDVNHSFVDDSIIMDNGDVNGRLPAVIKFEIQLYKSRDEKYLLDMQRVTGPQLLFLDFCAAFLTKLRVL
Take B2: the binding result in assay [2] is “binds”.

B3: OsK4, endogenous in rice leaves (enzyme, UniProt Q852Q1 1-509)
chain: MEGNARGGGHSEALKNYNLGRTLGIGSFGKVKIAEHKLTGHRVAIKILNRRQMRNMEMEEKAKREIKILRLFIHPHIIRLYEVIYTPTDIYVVMEYCKFGELFDYIVEKGRLQEDEARRIFQQIISGVEYCHRNMVVHRDLKPENLLLDSKYNVKLADFGLSNVMHDGHFLKTSCGSPNYAAPEVISGKLYAGPEVDVWSCGVILYALLCGTLPFDDENIPNLFKKIKGGIYTLPSHLSALARDLIPRMLVVDPMKRITIREIREHQWFQIRLPRYLAVPPPDTAQQAKMIDEDTLQDVVNLGYEKDHVCESLRNRLQNEATVAYYLLLDNRFRATSGYLGADYQESLERNLNRFASSESASSNTRHYLPGSSDPHASGLRPHYPVERKWALGLQSRAQPREIMIEVLKALEDLNVCWKKNGQYNMKCRWSVGYPQATDMLDVNHSFVDDSIIMDNGDVNGRLPAVIKFEIQLYKSRDEKYLLDMQRVTGPQLLFLDFCAAFLTKLRVL
Turning to B3, in assay [3], the binding result is “binds”.

B4: OsK4, BiFC fusion (pSAT1-cCFP-N-OsK4) (enzyme, UniProt Q852Q1 1-509)
chain: MEGNARGGGHSEALKNYNLGRTLGIGSFGKVKIAEHKLTGHRVAIKILNRRQMRNMEMEEKAKREIKILRLFIHPHIIRLYEVIYTPTDIYVVMEYCKFGELFDYIVEKGRLQEDEARRIFQQIISGVEYCHRNMVVHRDLKPENLLLDSKYNVKLADFGLSNVMHDGHFLKTSCGSPNYAAPEVISGKLYAGPEVDVWSCGVILYALLCGTLPFDDENIPNLFKKIKGGIYTLPSHLSALARDLIPRMLVVDPMKRITIREIREHQWFQIRLPRYLAVPPPDTAQQAKMIDEDTLQDVVNLGYEKDHVCESLRNRLQNEATVAYYLLLDNRFRATSGYLGADYQESLERNLNRFASSESASSNTRHYLPGSSDPHASGLRPHYPVERKWALGLQSRAQPREIMIEVLKALEDLNVCWKKNGQYNMKCRWSVGYPQATDMLDVNHSFVDDSIIMDNGDVNGRLPAVIKFEIQLYKSRDEKYLLDMQRVTGPQLLFLDFCAAFLTKLRVL
On to B4, for which the binding entry in assay [4] is recorded as “binds”.

B5: Early heading date 1 (EHD1), yeast hybrid fusion (protein, UniProt Q7Y0W5 1-341)
chain: MDHRELWPYGLRVLVIDDDCSYLSVMEDLLLKCSYKVTTYKNVREAVPFILDNPQIVDLVISDAFFPTEDGLLILQEVTSKFGIPTVIMASSGDTNTVMKYVANGAFDFLLKPVRIEELSNIWQHIFRKQMQDHKNNNMVGNLEKPGHPPSILAMARATPATTRSTATEASLAPLENEVRDDMVNYNGEITDIRDLGKSRLTWTTQLHRQFIAAVNHLGEDKAVPKKILGIMKVKHLTREQVASHLQKYRMQLKKSIPTTSKHGATLSSTALDKTQDHPSRSQYFNQDGCKEIMDYSLPRDDLSSGSECMLEELNDYSSEGFQDFRWDSDKQEYGPCFWNF
B5: the binding entry in assay [2] is “no binding”.
